Source: publication PMC5349447, “Applying a high-throughput fluorescence polarization assay for the discovery of chemical probes blocking La:RNA interactions in vitro and in cells” (PLoS ONE, 2017)

By UniProt entry, the sequences of proteins in these tests, tags left out. Residues count along the entry.
UniProt P05455, 111-348: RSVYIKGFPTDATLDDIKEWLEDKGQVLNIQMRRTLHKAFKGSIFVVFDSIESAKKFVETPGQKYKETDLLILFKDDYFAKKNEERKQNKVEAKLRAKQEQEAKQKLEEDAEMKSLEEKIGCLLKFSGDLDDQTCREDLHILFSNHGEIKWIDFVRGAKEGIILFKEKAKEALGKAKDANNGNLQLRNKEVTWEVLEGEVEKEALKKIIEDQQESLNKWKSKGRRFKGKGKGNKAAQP

Molecular target: La-RRM1+2 (human) (UniProt P05455)
Experiment: EMSA
Details: partial shift only above 300 nM protein, no reliable Kd; EMSA: about 20 mM Tris-HCl pH 7.4, 150 mM NaCl, 3 mM MgCl2, 0.5 mM EDTA, IGEPAL, glycerol, 50 nM RNA, RT 10 min; recombinant protein; protein details: His

CCCUUUUCCCACCCCCUAGCGCCGCUGGGCCU [TOPf]
binding result: binds more weakly

Construct, isoform or probe ends are uncertain for at least one entry. The comparison behind a weaker result is the experiment's own reference, which may not be listed here.
